Patent US20080194467A1, “CANCER TREATMENT METHODS USING CADHERIN ANTAGONISTS IN COMBINATION WITH ANTICANCER AGENTS” (ADHEREX TECHNOLOGIES, INC., priority 2006, published 2008)
At least one structure is not confirmed: it was looked up by name or label, or the drawing left a doubt.

Tested on: A375 tumors
Assay: In vivo combination therapy of A375 tumors, ADH-1 with temozolomide
Settings: ADH-1 100 mg/kg i.p. qdx8; TMZ 100 mg/kg p.o. qdx5; administered separately
Protocol: 100 mg/kg of TMZ was administered p.o. on a qdx5 schedule starting on Day 4. For the combination groups, TMZ was always administered 1 hour after the ADH-1 dose. A375 tumors were resistant to both TMZ and ADH-1 when administered separately.

## Cn1nnc2c(C(N)=O)ncn2c1=O [TMZ, temozolomide]
  tumor response to treatment (resistance): resistant
